# Measurements taken from the supplement of paper PMC5949888.
# Most values lie at the floor of the assay. Slopes are relative: functional sequences can read slightly below zero.
# Tested on: Saccharomyces cerevisiae PS128 hsf1 delta, HSF1(1-493) fusion
# Assay: growth estimate (transactivation domain function in HSF1 fusion, heat-shock survival) (a.u. (slope of normalised read count over time)); higher = stronger growth at 37°C, i.e. more transactivation activity
# Conditions: library: random library
# Description: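 Random 60-nt DNA library encoding peptides of up to 20 aa, fused to the C-terminus of yeast HSF1 residues 1-493 (C-terminal TAD deleted) and expressed from the native HSF1 promoter on a CEN plasmid in hsf1-deleted S. cerevisiae PS128. Cells were selected at 37°C on -trp 5-FOA plates for 0, 2, 4, 6 and 8 days and amplicons were sequenced. Growth estimate is the slope of a robust linear fit of total-sum-normalised read counts (normalised to the first time point) over time, using at least 2 replicates. Sequences are classed functional (TAD activity) above a threshold of -0.13, set from stop-codon control sequences.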
row,Substance,growth estimate
1,RSSVK,-0.232
2,YRETAGHSPELGGLQPSLRW,< -0.25
3,RTAPITLQMHTL,< -0.25
4,NVLQLSLSQSIFSRSGPRCA,< -0.25
5,VNA,< -0.25
6,WFLLLQGVSQTSPWPTPCVR,< -0.25
7,PGLSMTDAF,< -0.25
8,YGHSQASAYKLHLSDLAELT,< -0.25
9,VHSAFIWWY,< -0.25
10,RQGPRQSTGGLERLN,< -0.25
11,SYRKGG,< -0.25
12,GDAPACGLRTM,< -0.25
13,RHTYEWLASKPHRPPICTRA,< -0.25
14,WGAGDA,< -0.25
15,QRSRFTVRLGSCFGLPCTCD,< -0.25
16,PEGILFLQLAQCKGGG,< -0.25
17,ATSI,< -0.25
18,RERCMKATARRLWHRQSGVG,< -0.25
19,VEGVKFMRRISILVRCDHRS,< -0.25
20,VDSG,< -0.25
21,YVL,-0.245
22,SLGLGSPVWRGLTEMIGSCC,< -0.25
23,LTAKV,< -0.25
24,NVYVPDAVPSGEDLEAFKLT,-0.246

row,Substance,growth estimate
1,HGSNKDVGVHVV,< -0.25
2,PSFNGRSWLDFTEKGSHN,< -0.25
3,LRCHVVKSARRALRANL,< -0.25
4,RVSTVTGPRKPRAFRKVK,< -0.25
5,GIWSSLATACSVRSRSTVCG,< -0.25
6,LFSQRQTIPVPPHICRSGDV,< -0.25
7,AGRERD,< -0.25
8,PRRRDWEIVGCWKCAVFAAR,< -0.25
9,VKLWTRLDVLRCDGSHGQLR,< -0.25
10,RATSSAVCCCALPDGEKHPG,-0.245
11,TTVC,< -0.25
12,VHQDCYSGVLGTFREVVSRP,< -0.25
13,GLARSWKCILMLLGRRRQA,< -0.25
14,FVSQTSCQVMYSNFNYD,< -0.25
15,RQLAPIVSVAHANAMGSDNA,< -0.25
16,CRPYRFDIGIRMLSMLLSEG,< -0.25
17,FKTVAL,< -0.25
18,GPCVPVIRCWGAGNSASSPC,< -0.25
19,SVILDIIHCRQYRNLRPDGP,< -0.25
20,GGCWLSALEPIIKQESAGP,< -0.25
21,GQLLDAFGKPADRSWFYSQS,< -0.25
22,IPRSVSY,< -0.25
23,WFLRVSINREIQI,< -0.25
24,ENVSWEGDHCVPRVFSI,< -0.25

row,Substance,growth estimate
1,AESAPAPVRREDYA,< -0.25
2,RARGHTSSSL,< -0.25
3,TRDLTYNGVCSSWRTG,< -0.25
4,GAKDQPGLGGKPVHRCKLTV,< -0.25
5,CPRPGIYSRTVSRNQGRVRV,< -0.25
6,GEEFES,< -0.25
7,LRCDQSYMEPDRKGTKVP,< -0.25
8,LLPRRCVYPRYFNWASASKH,< -0.25
9,RPQYRGLNILLT,< -0.25
10,REHGH,< -0.25
11,IQDRRINIKGEVTIECPDRL,< -0.25
12,RGLSHTFNGSFSVEAGNPVR,< -0.25
13,SHA,< -0.25
14,AEEYGMYLSAITRHVRQTWV,< -0.25
15,GEVIRGDHSRIFTVVAALNR,< -0.25
16,SSDVVP,< -0.25
17,ESQAVCVGGVAVMISRRWND,0.0741
18,QSSYNWARGGKLTARLVYC,< -0.25
19,RFKY,< -0.25
20,MKSG,< -0.25
21,VVGCSLVLTRQFVYQKRLSA,< -0.25
22,GTGLMTCPTRFRVSLLAPGS,< -0.25
23,IEGFHSKRRRAMDIESGFQF,0.851
24,RRNTAAGDRFDRGFAPHIVQ,< -0.25

# Fetched one by one from the list above:
row,Substance,growth estimate
9,VKLWTRLDVLRCDGSHGQLR,< -0.25
6,WFLLLQGVSQTSPWPTPCVR,< -0.25

# Next part:

row,Substance,growth estimate
1,SLVE,< -0.25
2,TEIRETRRLAWTQLSAVIAR,< -0.25
3,WQERRGH,< -0.25
4,YPTCNQPSLPQTPIGEVGWA,< -0.25
5,QSDLSDGR,< -0.25
6,TEKRRSLN,< -0.25
7,KLRVKSQGDRAQ,< -0.25
8,FWGNHRGACCLDIPKKHLCR,< -0.25
9,CTG,< -0.25
10,QNT,< -0.25
11,ACSPRYGEPPA,< -0.25
12,TCET,< -0.25
13,PTNVEKYCIGPVA,< -0.25
14,VPHSCTRTNGTQKGILWYGY,< -0.25
15,YAQMNGHAFFESEAFSLWTS,< -0.25
16,RDSSNGPYV,< -0.25
17,GCTRLLGDF,< -0.25
18,PGNQARGTRLPFGRLTKLSA,< -0.25
19,RWGSPAGRVTTPDSNDALTQ,< -0.25
20,RGCI,< -0.25
21,QSEKEPR,< -0.25
22,LGTETRTLERMVVAC,< -0.25
23,GWCRRRINRLEWPPIPNRSS,< -0.25

# Given with bars between the fields: entries from further up
row | Substance | growth estimate
2 | PSFNGRSWLDFTEKGSHN | < -0.25
3 | LRCHVVKSARRALRANL | < -0.25
